Results reported in patent US10314870B2, “Tropism modified cancer terminator virus (Ad.5/3 CTV;AD.5/3-CTV-M7)” (priority 2012, dated 2019).
For some assays here: At least one compound was matched to its structure with a doubt left. Some results were stated once for a whole list of compounds, not compound by compound.

Legend:
[1] = major metabolites of POH; cited from earlier work
[2] = tested on: primary human GBM cells (GBM6, GBM12); experiment: Cell death by trypan blue exclusion in primary human GBM cells; format: cell-based; settings: GBM6, Ad.5-mda-7 moi 10; obatoclax 0-200 nM or HA14-1 0-10 μM; 24 h
From the text: The pooled cell pellets were resuspended and mixed with trypan blue dye.

Row | SMILES | half-life [1] [h] | effect on lethality of Ad.5-mda-7 [2]
1 | C=C(C)[C@@H]1CC=C(C(=O)O)CC1 [Perillic acid] | 1 to 3 | 
2 | COC1=CC(c2cc3ccccc3[nH]2)=N/C1=C\c1[nH]c(C)cc1C [obatoclax] |  | enhanced the lethality of Ad.5-mda-7
